Our source for the log2 fold change values is the supplement of paper PMC10849652.

Sequences of proteins named here, by UniProt entry; tags and fusion partners are left off. A change or cut given only in a name is not applied to a line headed by its entry.
UniProt Q13769: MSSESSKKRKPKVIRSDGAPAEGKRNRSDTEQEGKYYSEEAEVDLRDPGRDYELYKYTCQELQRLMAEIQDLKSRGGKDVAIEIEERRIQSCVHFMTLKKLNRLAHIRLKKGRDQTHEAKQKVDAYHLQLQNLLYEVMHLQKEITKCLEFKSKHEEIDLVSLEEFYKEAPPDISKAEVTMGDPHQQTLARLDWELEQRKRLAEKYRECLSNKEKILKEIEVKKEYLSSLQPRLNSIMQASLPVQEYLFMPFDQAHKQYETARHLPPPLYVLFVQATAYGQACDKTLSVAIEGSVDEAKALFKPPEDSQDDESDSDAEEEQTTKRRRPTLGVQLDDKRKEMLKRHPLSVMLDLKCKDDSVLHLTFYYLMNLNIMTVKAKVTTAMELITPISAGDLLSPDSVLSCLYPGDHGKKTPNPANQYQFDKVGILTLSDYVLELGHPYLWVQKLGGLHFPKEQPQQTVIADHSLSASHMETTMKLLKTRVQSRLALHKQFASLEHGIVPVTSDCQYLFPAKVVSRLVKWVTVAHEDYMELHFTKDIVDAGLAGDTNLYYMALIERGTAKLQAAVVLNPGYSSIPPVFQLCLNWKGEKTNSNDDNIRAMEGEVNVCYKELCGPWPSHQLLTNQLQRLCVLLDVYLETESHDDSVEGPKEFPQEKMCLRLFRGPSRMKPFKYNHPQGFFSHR
UniProt Q9H0V1: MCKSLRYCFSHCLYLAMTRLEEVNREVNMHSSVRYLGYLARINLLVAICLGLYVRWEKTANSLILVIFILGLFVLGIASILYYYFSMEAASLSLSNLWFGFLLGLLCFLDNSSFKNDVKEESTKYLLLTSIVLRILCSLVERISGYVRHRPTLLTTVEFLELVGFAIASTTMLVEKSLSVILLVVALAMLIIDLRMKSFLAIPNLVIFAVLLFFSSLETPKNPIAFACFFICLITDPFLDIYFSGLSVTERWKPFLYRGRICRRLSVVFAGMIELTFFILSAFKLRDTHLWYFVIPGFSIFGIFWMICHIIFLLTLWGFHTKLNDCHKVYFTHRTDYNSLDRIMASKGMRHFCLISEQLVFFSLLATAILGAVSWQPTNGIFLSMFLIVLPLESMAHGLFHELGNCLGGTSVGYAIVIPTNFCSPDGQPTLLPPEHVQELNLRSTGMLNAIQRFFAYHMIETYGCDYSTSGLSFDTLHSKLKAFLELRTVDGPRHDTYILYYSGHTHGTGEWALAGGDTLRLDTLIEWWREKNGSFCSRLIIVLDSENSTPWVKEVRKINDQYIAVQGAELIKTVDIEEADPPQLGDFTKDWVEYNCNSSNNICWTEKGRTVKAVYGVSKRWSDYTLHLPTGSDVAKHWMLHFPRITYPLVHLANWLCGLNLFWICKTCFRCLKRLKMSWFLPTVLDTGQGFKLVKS
UniProt A0PK00: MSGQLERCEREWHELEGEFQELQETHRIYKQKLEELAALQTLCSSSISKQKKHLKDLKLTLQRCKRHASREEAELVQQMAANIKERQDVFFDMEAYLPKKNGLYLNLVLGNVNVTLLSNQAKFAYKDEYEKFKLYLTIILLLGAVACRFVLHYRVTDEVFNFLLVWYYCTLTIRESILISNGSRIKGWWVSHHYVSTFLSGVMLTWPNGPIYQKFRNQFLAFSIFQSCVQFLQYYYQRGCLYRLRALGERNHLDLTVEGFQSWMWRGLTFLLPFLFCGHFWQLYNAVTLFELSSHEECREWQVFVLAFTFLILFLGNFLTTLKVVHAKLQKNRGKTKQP
UniProt Q3ZCQ8: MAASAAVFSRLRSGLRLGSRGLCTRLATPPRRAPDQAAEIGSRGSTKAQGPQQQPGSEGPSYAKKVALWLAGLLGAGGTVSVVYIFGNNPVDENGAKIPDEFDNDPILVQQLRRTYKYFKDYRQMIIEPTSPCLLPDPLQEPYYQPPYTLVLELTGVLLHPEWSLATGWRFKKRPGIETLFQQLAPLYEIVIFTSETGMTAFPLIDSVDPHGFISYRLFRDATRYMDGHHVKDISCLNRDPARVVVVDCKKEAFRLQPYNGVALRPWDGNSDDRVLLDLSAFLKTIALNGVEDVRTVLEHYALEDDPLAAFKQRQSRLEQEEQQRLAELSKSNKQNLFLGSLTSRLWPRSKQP
UniProt P55061, whole entry, looked up: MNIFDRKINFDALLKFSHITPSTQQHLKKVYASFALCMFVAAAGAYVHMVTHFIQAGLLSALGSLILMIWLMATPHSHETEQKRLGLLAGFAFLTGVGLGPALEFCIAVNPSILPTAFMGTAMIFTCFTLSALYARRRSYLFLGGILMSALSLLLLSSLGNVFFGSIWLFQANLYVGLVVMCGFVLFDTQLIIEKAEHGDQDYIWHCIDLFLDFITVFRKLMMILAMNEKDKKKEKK
UniProt O14925: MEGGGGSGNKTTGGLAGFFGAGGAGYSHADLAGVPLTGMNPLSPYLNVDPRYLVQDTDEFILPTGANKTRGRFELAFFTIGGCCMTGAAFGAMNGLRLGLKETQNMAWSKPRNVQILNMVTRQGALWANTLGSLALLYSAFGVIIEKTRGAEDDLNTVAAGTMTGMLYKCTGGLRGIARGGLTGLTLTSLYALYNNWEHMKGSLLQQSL
UniProt O15321, whole entry, looked up: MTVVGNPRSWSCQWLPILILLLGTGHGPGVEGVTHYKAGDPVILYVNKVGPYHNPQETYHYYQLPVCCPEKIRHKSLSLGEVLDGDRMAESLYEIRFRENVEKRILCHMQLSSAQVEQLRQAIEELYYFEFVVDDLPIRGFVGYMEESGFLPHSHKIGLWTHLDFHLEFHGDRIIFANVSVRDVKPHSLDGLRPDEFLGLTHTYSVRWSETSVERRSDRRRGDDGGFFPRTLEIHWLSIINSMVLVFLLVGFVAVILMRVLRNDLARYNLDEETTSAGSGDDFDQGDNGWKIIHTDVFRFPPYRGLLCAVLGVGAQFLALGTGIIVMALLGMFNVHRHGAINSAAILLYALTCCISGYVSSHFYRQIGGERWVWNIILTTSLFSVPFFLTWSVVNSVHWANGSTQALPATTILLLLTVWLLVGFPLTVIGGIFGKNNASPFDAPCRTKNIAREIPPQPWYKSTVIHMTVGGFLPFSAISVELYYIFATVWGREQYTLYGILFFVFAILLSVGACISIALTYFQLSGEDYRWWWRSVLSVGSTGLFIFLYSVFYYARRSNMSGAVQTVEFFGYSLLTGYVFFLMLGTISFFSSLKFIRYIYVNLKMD
UniProt Q8NDZ6: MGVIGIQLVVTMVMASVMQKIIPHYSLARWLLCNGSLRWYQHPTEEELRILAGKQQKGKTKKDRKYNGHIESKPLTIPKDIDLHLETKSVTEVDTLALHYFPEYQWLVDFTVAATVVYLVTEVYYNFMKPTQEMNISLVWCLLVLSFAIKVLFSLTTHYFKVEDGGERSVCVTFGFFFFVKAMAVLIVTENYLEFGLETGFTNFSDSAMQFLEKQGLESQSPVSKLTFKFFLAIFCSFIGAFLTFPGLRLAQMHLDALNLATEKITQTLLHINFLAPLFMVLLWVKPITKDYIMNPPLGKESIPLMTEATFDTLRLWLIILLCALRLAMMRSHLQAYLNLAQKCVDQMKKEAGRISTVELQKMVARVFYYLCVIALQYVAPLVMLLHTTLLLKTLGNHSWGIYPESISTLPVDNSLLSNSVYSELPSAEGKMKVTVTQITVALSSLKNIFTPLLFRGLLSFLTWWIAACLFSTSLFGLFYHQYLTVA
UniProt Q86W42: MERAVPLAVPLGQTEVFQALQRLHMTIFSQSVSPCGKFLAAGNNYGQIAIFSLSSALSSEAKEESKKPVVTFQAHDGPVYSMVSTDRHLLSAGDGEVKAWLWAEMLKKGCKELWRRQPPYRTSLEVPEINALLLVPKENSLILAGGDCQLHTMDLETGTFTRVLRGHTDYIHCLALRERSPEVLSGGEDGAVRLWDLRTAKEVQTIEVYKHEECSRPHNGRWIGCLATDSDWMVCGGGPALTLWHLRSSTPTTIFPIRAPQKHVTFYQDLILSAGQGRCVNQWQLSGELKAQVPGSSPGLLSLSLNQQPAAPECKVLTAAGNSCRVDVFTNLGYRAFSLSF
UniProt P17152: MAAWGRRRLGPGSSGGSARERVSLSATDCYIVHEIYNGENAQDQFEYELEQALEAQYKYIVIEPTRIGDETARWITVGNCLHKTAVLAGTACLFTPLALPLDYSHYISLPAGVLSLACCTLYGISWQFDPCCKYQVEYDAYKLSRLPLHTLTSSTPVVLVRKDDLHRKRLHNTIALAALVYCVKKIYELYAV
UniProt Q96J01: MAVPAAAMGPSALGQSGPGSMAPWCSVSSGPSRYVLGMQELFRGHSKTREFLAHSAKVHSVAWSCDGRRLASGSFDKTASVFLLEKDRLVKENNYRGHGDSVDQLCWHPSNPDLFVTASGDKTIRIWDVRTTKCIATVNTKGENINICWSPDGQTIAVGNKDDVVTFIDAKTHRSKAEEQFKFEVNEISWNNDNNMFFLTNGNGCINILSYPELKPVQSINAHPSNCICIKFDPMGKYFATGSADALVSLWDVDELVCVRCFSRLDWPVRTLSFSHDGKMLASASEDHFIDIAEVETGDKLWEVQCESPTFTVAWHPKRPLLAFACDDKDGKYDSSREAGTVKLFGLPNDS
UniProt Q15363: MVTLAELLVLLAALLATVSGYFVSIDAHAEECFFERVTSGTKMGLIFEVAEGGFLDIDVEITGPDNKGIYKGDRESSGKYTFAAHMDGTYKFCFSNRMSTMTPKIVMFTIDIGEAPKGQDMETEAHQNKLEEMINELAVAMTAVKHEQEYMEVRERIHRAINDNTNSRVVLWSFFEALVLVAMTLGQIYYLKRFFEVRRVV
UniProt Q9Y3A6: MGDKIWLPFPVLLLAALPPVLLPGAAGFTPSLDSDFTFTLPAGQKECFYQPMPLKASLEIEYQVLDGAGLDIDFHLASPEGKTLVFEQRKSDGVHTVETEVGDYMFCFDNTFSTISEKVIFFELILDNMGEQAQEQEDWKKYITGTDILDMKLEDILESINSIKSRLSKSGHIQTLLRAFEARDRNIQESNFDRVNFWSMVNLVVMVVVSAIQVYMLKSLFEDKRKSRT
UniProt Q7Z7N9: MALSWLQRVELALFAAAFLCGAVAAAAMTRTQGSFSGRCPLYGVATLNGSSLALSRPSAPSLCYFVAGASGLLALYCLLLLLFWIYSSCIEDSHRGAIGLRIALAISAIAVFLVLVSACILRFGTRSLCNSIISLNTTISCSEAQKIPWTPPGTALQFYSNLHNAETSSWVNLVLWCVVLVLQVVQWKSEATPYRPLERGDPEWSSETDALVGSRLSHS
UniProt O43422: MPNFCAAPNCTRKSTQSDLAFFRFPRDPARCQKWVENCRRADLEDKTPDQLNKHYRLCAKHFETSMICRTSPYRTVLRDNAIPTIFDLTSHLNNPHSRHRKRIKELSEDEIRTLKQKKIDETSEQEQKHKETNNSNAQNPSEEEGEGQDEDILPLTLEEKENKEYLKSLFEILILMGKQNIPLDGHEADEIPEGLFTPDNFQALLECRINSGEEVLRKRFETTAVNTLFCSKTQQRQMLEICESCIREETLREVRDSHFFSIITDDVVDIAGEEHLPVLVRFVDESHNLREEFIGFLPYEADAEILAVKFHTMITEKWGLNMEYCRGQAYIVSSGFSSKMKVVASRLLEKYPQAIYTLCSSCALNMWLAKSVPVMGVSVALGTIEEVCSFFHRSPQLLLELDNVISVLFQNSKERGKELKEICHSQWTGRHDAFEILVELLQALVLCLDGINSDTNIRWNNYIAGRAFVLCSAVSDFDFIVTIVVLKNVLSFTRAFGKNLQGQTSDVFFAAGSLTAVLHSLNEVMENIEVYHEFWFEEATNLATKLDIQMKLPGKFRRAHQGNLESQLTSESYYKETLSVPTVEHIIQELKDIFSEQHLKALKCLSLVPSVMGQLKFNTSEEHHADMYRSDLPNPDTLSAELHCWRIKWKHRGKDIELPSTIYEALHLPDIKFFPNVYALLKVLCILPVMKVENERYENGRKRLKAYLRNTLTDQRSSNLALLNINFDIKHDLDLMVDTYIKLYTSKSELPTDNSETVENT
UniProt Q5TEJ8: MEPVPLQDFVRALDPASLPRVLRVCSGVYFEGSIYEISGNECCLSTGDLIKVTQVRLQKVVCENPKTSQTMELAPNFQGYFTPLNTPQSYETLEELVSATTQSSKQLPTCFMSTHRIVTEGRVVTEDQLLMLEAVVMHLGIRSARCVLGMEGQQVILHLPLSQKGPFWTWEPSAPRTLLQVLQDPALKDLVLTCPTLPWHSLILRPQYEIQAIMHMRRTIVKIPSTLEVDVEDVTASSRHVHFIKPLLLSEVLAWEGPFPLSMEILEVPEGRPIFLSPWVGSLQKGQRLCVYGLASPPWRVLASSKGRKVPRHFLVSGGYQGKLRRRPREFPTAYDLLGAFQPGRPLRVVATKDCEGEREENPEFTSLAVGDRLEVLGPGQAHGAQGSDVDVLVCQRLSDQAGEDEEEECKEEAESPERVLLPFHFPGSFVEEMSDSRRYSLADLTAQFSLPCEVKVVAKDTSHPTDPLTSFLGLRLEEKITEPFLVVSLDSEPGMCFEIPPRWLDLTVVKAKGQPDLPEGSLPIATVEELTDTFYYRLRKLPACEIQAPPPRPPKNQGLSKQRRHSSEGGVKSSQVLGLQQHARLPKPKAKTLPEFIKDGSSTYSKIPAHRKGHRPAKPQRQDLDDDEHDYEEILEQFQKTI

The list shows a part of the results.

Compound in the first experiment: NCC(=O)Nc1ccc(-n2nc(C(F)(F)F)cc2-c2ccc3c(ccc4ccccc43)c2)cc1
The experiment is described as follows: log2 fold change, soluble protein after heating vs DMSO (PISA); higher = thermal stabilisation; K562 lysate, 10 uM; active = over 0.2 and 3.5 SD of the protein, either way, in both replicates (recomputed). The essentials:
(§1)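 Dounce homogenisation of K562 pellets in PBS pH 7.4 with 1 mM MgCl2 produced a crude extract, used at 1 mg/mL protein. Exposure to 10 μM compound lasted 30 min, and aliquots were then heated for 3 min across 48°C-58°C, pooled and brought to 0.5% NP-40 at 4°C. The supernatant after 21,000xg for 90 min was quantified by TMTpro 16plex LC-MS/MS with channel sums equalised. Duplicate values are given as log-two fold change in thermal stability relative to solvent controls.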
For the target THOC5 (UniProt Q13769), the log2 fold change is inactive: 0.012.

In the case of TMEM168 (UniProt Q9H0V1), the log2 fold change was inactive: -0.068.

In the case of TMEM120B (UniProt A0PK00), the log2 fold change was inactive: -0.093.

With TIMM50 isoform 2 (UniProt Q3ZCQ8), the log2 fold change was inactive: 0.

On to TMBIM6 isoform 2 (UniProt P55061), for which the log2 fold change was inactive: -0.066.

On to TLE3 isoform 4 (UniProt Q04726), for which the log2 fold change is inactive: 0.011.

On to TIMM23 (UniProt O14925), for which the log2 fold change was inactive: -0.002.

For TM9SF1 (UniProt O15321), the log2 fold change was inactive: -0.038.

For TMEM161B (UniProt Q8NDZ6), the log2 fold change is inactive: -0.084.

THOC6 (UniProt Q86W42): the log2 fold change is inactive: 0.068.

For the target TMEM11 (UniProt P17152), the log2 fold change is inactive: -0.011.

THOC3 (UniProt Q96J01): the log2 fold change is inactive: 0.033.

Turning to TMED2 (UniProt Q15363), the log2 fold change was inactive: -0.039.

Take TMED5 (UniProt Q9Y3A6): the log2 fold change was inactive: -0.043.

On to TMEM179B (UniProt Q7Z7N9), for which the log2 fold change is inactive: 0.015.

In the case of THAP12 (UniProt O43422), the log2 fold change is inactive: 0.069.

Compound in a further experiment: O=C(CCCCCCC(=O)Nc1ccccc1)NO [vorinostat]
The experiment is described as above. The essentials: as §1
As for TMED8 (UniProt Q6PL24), the log2 fold change is inactive: -0.096.

Regarding TLK1 isoform 2 (UniProt Q9UKI8), the log2 fold change is active: -0.369.

On to TM9SF3 (UniProt Q9HD45), for which the log2 fold change is inactive: 0.108.

As for TM9SF2 (UniProt Q99805), the log2 fold change was inactive: 0.098.

With TMEM181 (UniProt Q9P2C4), the log2 fold change was inactive: 0.128.

As to TLCD4 (UniProt Q96MV1), the log2 fold change was inactive: 0.057.

For TMEM115 (UniProt Q12893), the log2 fold change was inactive: 0.049.

As for TIMM9 (UniProt Q9Y5J7), the log2 fold change is inactive: 0.174.

As for TMEM120A (UniProt Q9BXJ8), the log2 fold change is inactive: 0.187.

TICAM2 isoform 2 (UniProt Q86XR7): the log2 fold change is inactive: 0.087.

Turning to TIGAR (UniProt Q9NQ88), the log2 fold change was inactive: 0.005.

As for TM9SF4 (UniProt Q92544), the log2 fold change was inactive: 0.16.

Regarding TMEM173 (UniProt Q86WV6), the log2 fold change was inactive: 0.081.

Take TJP1 isoform 2 (UniProt Q07157): the log2 fold change is inactive: 0.041.

In the case of TMCO6 isoform 2 (UniProt Q96DC7), the log2 fold change is inactive: -0.123.

TLK2 isoform 2 (UniProt Q86UE8): the log2 fold change is inactive: -0.24.

In the case of TLE4 isoform 3 (UniProt Q04727), the log2 fold change is inactive: 0.031.

Consider TMEM106B (UniProt Q9NUM4), for which the log2 fold change was inactive: 0.096.

As to TMED1 (UniProt Q13445), the log2 fold change was inactive: -0.045.

In the case of THEMIS2 (UniProt Q5TEJ8), the log2 fold change was active: -0.315.

On to TMEM165 (UniProt Q9HC07), for which the log2 fold change is inactive: 0.197.

Regarding TMCO1 (UniProt Q9UM00), the log2 fold change is inactive: 0.131.

Take THOC5 (UniProt Q13769): the log2 fold change is inactive: -0.077.

TMEM168 (UniProt Q9H0V1): the log2 fold change was inactive: 0.079.

For TMEM120B (UniProt A0PK00), the log2 fold change is inactive: -0.008.

Turning to TIMM50 isoform 2 (UniProt Q3ZCQ8), the log2 fold change was inactive: 0.049.

As for TMBIM6 isoform 2 (UniProt P55061), the log2 fold change is inactive: 0.112.

As for TLE3 isoform 4 (UniProt Q04726), the log2 fold change is inactive: 0.047.

For the target TIMM23 (UniProt O14925), the log2 fold change is inactive: 0.069.

On to TM9SF1 (UniProt O15321), for which the log2 fold change is inactive: 0.14.

Consider TMEM161B (UniProt Q8NDZ6), for which the log2 fold change is inactive: 0.225.

Turning to THOC6 (UniProt Q86W42), the log2 fold change is inactive: 0.051.

On to TMEM11 (UniProt P17152), for which the log2 fold change was inactive: -0.067.

Turning to THOC3 (UniProt Q96J01), the log2 fold change was inactive: -0.185.

Regarding TMED2 (UniProt Q15363), the log2 fold change is inactive: 0.112.

On to TMED5 (UniProt Q9Y3A6), for which the log2 fold change was inactive: 0.073.

TMEM179B (UniProt Q7Z7N9): the log2 fold change is inactive: 0.115.

Consider THAP12 (UniProt O43422), for which the log2 fold change was inactive: -0.127.

Compound in the next experiment: O=C(O)c1ccc2c(c1)nc(Nc1cccc(Cl)c1)c1ccncc12 [silmitasertib]
The experiment is described as above. Summed up: as §1
For TMED8 (UniProt Q6PL24), the log2 fold change was inactive: 0.04.

Regarding TLK1 isoform 2 (UniProt Q9UKI8), the log2 fold change was inactive: 0.117.

With TM9SF3 (UniProt Q9HD45), the log2 fold change was inactive: 0.01.

Regarding TM9SF2 (UniProt Q99805), the log2 fold change was inactive: -0.015.

On to TMEM181 (UniProt Q9P2C4), for which the log2 fold change is inactive: 0.015.

In the case of TLCD4 (UniProt Q96MV1), the log2 fold change is inactive: -0.03.

As to TMEM115 (UniProt Q12893), the log2 fold change is inactive: 0.

For TIMM9 (UniProt Q9Y5J7), the log2 fold change is inactive: -0.035.

As for TMEM120A (UniProt Q9BXJ8), the log2 fold change is inactive: 0.182.

In the case of TICAM2 isoform 2 (UniProt Q86XR7), the log2 fold change is inactive: -0.017.

For the target TIGAR (UniProt Q9NQ88), the log2 fold change is inactive: 0.065.

On to TM9SF4 (UniProt Q92544), for which the log2 fold change was inactive: 0.066.

On to TMEM173 (UniProt Q86WV6), for which the log2 fold change is inactive: 0.032.

On to TJP1 isoform 2 (UniProt Q07157), for which the log2 fold change was inactive: -0.035.

As for TMCO6 isoform 2 (UniProt Q96DC7), the log2 fold change is inactive: -0.014.

For TLK2 isoform 2 (UniProt Q86UE8), the log2 fold change was inactive: 0.057.

As to TLE4 isoform 3 (UniProt Q04727), the log2 fold change was inactive: 0.028.

On to TMEM106B (UniProt Q9NUM4), for which the log2 fold change was inactive: 0.01.

As to TMED1 (UniProt Q13445), the log2 fold change is inactive: 0.123.

For the target THEMIS2 (UniProt Q5TEJ8), the log2 fold change was inactive: 0.069.

Turning to TMEM165 (UniProt Q9HC07), the log2 fold change is inactive: -0.013.

As to TMCO1 (UniProt Q9UM00), the log2 fold change was inactive: 0.019.

For the target THOC5 (UniProt Q13769), the log2 fold change was inactive: 0.011.

TMEM168 (UniProt Q9H0V1): the log2 fold change is inactive: 0.013.

For the target TMEM120B (UniProt A0PK00), the log2 fold change was inactive: 0.155.

For the target TIMM50 isoform 2 (UniProt Q3ZCQ8), the log2 fold change is inactive: 0.023.

On to TMBIM6 isoform 2 (UniProt P55061), for which the log2 fold change was inactive: 0.

Take TLE3 isoform 4 (UniProt Q04726): the log2 fold change is inactive: -0.052.

In the case of TIMM23 (UniProt O14925), the log2 fold change is inactive: -0.016.

As for TM9SF1 (UniProt O15321), the log2 fold change is inactive: -0.042.

Take TMEM161B (UniProt Q8NDZ6): the log2 fold change was inactive: 0.

THOC6 (UniProt Q86W42): the log2 fold change was inactive: 0.025.

For TMEM11 (UniProt P17152), the log2 fold change was inactive: 0.083.

As to THOC3 (UniProt Q96J01), the log2 fold change was inactive: 0.031.

In the case of TMED2 (UniProt Q15363), the log2 fold change is inactive: -0.028.

Turning to TMED5 (UniProt Q9Y3A6), the log2 fold change was inactive: -0.017.

TMEM179B (UniProt Q7Z7N9): the log2 fold change was inactive: -0.086.

Take THAP12 (UniProt O43422): the log2 fold change is inactive: -0.008.
